For at least one compound, name, drawing or mass did not settle the structure.
Tested on: Akt, MAPK, GSK3-β, snail, slug, KLF4 in SK-BR-3 cells
Assay: Western blot of erbB downstream signaling and Snail/Slug, SK-BR-3
Assay type: cell-based, human

For `O=c1cc(N2CCOCC2)oc2c(-c3ccccc3)cccc12` [LY294002], the slug protein level was “not slug” and the snail protein level was “reduction in snail”.

Source: patent US11446516B2, “Methods of increasing response to cancer radiation therapy” (THE TRUSTEES OF THE UNIVERSITY OF PENNSYLVANIA, priority 2013, dated 2022)
